Data: patent US20210400977A1, “META-DIAMIDE COMPOUNDS FOR CONTROLLING INVERTEBRATE PESTS” (FMC Corporation, priority 2018, published 2021)
Some results were stated once for a whole list of compounds, not compound by compound.

system: fall armyworm (Spodoptera frugiperda (J. E. Smith)); assay: Test B: control of fall armyworm, foliar spray on corn (maize) plant; type: in vivo; conditions: sprayed at 50 ppm, assessed after 6 days, value is the feeding damage limit

Q: Which “control efficacy (40% or less feeding damage and/or 100% mortality)” value does the source give for CCC(=O)NCc1cc(NC(=O)C2C(c3ccc(F)c(C(F)(F)F)c3)C2(Cl)Cl)ccc1F (centres unmarked) [Compound 36] here?
A: ≤ 40%

Q: How did the “control efficacy (40% or less feeding damage and/or 100% mortality)” value turn out when CCC(=O)NCc1cc(NC(=O)C2C(c3ccc(F)cc3)C2(Cl)Cl)ccc1Cl (centres unmarked) [Compound 9] was run?
A: ≤ 40%

Q: CCC(=O)NCc1cc(NC(=O)C2C(c3ccc(F)c(Cl)c3)C2(Cl)Cl)ccc1Cl (centres unmarked) [Compound 26] was tested. Which “control efficacy (40% or less feeding damage and/or 100% mortality)” value did it give?
A: ≤ 40%

Q: With O=C(Cc1ncccn1)NCc1cc(NC(=O)C2C(c3ccc(F)c(C(F)(F)F)c3)C2(Cl)Cl)ccc1Cl (centres unmarked) [Compound 181] as the molecule, how does the “control efficacy (40% or less feeding damage and/or 100% mortality)” value read?
A: ≤ 40%

Q: How did the “control efficacy (40% or less feeding damage and/or 100% mortality)” value turn out when O=C(Nc1ccc(Cl)c(CNC(=O)C(F)(F)F)c1)C1C(c2cc(F)c(Cl)c(F)c2)C1(Cl)Cl (centres unmarked) [Compound 168] was run?
A: ≤ 40%

Q: How did the “control efficacy (40% or less feeding damage and/or 100% mortality)” value turn out when CC(=O)NCc1cc(NC(=O)C2C(c3ccc(F)c(Cl)c3)C2(Cl)Cl)ccc1Br (centres unmarked) [Compound 133] was run?
A: ≤ 40%

Q: CCC(=O)NCc1cc(NC(=O)C2C(c3ccc(Cl)c(Cl)c3)C2(Cl)Cl)ccc1Cl (centres unmarked) [Compound 35] was tested. Which “control efficacy (40% or less feeding damage and/or 100% mortality)” value did it give?
A: ≤ 40%

Q: With O=C(Nc1ccc(Cl)c(CNC(=O)C(F)(F)F)c1)C1C(c2cc(F)c(F)c(F)c2)C1(Cl)Cl (centres unmarked) [Compound 177] as the molecule, how does the “control efficacy (40% or less feeding damage and/or 100% mortality)” value read?
A: ≤ 40%

Q: Which “control efficacy (40% or less feeding damage and/or 100% mortality)” value does the source give for O=C(NCc1cc(NC(=O)C2C(c3ccc(F)c(Cl)c3)C2(Cl)Cl)ccc1F)C1CC1C(F)(F)F (centres unmarked) [Compound 151] here?
A: ≤ 40%

same assay, conditions: sprayed at 250 ppm, assessed after 6 days, value is the feeding damage limit

Q: With CCC(=O)NCc1cc(NC(=O)C2C(c3ccc(F)cc3)C2(Cl)Cl)ccc1F (centres unmarked) [Compound 10] as the molecule, how does the “control efficacy (40% or less feeding damage and/or 100% mortality)” value read?
A: ≤ 40%

Q: Which “control efficacy (40% or less feeding damage and/or 100% mortality)” value does the source give for CCC(=O)NCc1cc(NC(=O)C2C(c3ccc(F)c(C(F)(F)F)c3)C2(Cl)Cl)ccc1F (centres unmarked) [Compound 36] here?
A: ≤ 40%

Q: With CC(=O)NCc1cc(NC(=O)C2C(c3ccc(F)cc3)C2(Cl)Cl)ccc1Cl (centres unmarked) [Compound 8] as the molecule, how does the “control efficacy (40% or less feeding damage and/or 100% mortality)” value read?
A: ≤ 40%

Q: Which “control efficacy (40% or less feeding damage and/or 100% mortality)” value does the source give for CCC(=O)NCc1cc(NC(=O)C2C(c3ccc(F)cc3)C2(Cl)Cl)ccc1Cl (centres unmarked) [Compound 9] here?
A: ≤ 40%

Q: How did the “control efficacy (40% or less feeding damage and/or 100% mortality)” value turn out when CCC(=O)NCc1cc(NC(=O)C2C(c3ccc(F)c(Cl)c3)C2(Cl)Cl)ccc1Cl (centres unmarked) [Compound 26] was run?
A: ≤ 40%

Q: Which “control efficacy (40% or less feeding damage and/or 100% mortality)” value does the source give for CC(=O)NCc1cc(NC(=O)C2C(c3ccc(F)c(Cl)c3)C2(Cl)Cl)ccc1Br (centres unmarked) [Compound 133] here?
A: ≤ 40%

Q: With CCC(=O)NCc1cc(NC(=O)C2C(c3ccc(Cl)c(Cl)c3)C2(Cl)Cl)ccc1Cl (centres unmarked) [Compound 35] as the molecule, how does the “control efficacy (40% or less feeding damage and/or 100% mortality)” value read?
A: ≤ 40%

system: Western Flower Thrips (Frankliniellla occidentalis (Pergande)); assay: Test H: control of Western Flower Thrips through contact and/or systemic means; type: in vivo; conditions: sprayed at 50 ppm, assessed after 6 days, value is the plant damage limit

Q: With CCC(=O)NCc1cc(NC(=O)C2C(c3ccc(F)c(C(F)(F)F)c3)C2(Cl)Cl)ccc1F (centres unmarked) [Compound 36] as the molecule, how does the “control efficacy (30% or less plant damage and/or 100% mortality)” value read?
A: ≤ 30%

Q: With CC(=O)NCc1cc(NC(=O)C2C(c3ccc(F)cc3)C2(Cl)Cl)ccc1Cl (centres unmarked) [Compound 8] as the molecule, how does the “control efficacy (30% or less plant damage and/or 100% mortality)” value read?
A: ≤ 30%

Q: How did the “control efficacy (30% or less plant damage and/or 100% mortality)” value turn out when CCC(=O)NCc1cc(NC(=O)C2C(c3ccc(F)c(Cl)c3)C2(Cl)Cl)ccc1Cl (centres unmarked) [Compound 26] was run?
A: ≤ 30%

Q: For O=C(Cc1ncccn1)NCc1cc(NC(=O)C2C(c3ccc(F)c(C(F)(F)F)c3)C2(Cl)Cl)ccc1Cl (centres unmarked) [Compound 181], which “control efficacy (30% or less plant damage and/or 100% mortality)” value is on record?
A: ≤ 30%

Q: Which “control efficacy (30% or less plant damage and/or 100% mortality)” value does the source give for CCC(=O)NCc1cc(NC(=O)C2C(c3ccc(Cl)c(Cl)c3)C2(Cl)Cl)ccc1Cl (centres unmarked) [Compound 35] here?
A: ≤ 30%

Q: O=C(Nc1ccc(Cl)c(CNC(=O)C(F)(F)F)c1)C1C(c2cc(F)c(F)c(F)c2)C1(Cl)Cl (centres unmarked) [Compound 177] was tested. Which “control efficacy (30% or less plant damage and/or 100% mortality)” value did it give?
A: ≤ 30%

same assay, conditions: sprayed at 250 ppm, assessed after 6 days, value is the plant damage limit

Q: With CCC(=O)NCc1cc(NC(=O)C2C(c3ccc(F)cc3)C2(Cl)Cl)ccc1F (centres unmarked) [Compound 10] as the molecule, how does the “control efficacy (30% or less plant damage and/or 100% mortality)” value read?
A: ≤ 30%

Q: For CCC(=O)NCc1cc(NC(=O)C2C(c3ccc(F)c(C(F)(F)F)c3)C2(Cl)Cl)ccc1F (centres unmarked) [Compound 36], which “control efficacy (30% or less plant damage and/or 100% mortality)” value is on record?
A: ≤ 30%

Q: How did the “control efficacy (30% or less plant damage and/or 100% mortality)” value turn out when CC(=O)NCc1cc(NC(=O)C2C(c3ccc(F)cc3)C2(Cl)Cl)ccc1Cl (centres unmarked) [Compound 8] was run?
A: ≤ 30%

Q: With CCC(=O)NCc1cc(NC(=O)C2C(c3ccc(F)cc3)C2(Cl)Cl)ccc1Cl (centres unmarked) [Compound 9] as the molecule, how does the “control efficacy (30% or less plant damage and/or 100% mortality)” value read?
A: ≤ 30%

Q: For CCC(=O)NCc1cc(NC(=O)C2C(c3ccc(F)c(Cl)c3)C2(Cl)Cl)ccc1Cl (centres unmarked) [Compound 26], which “control efficacy (30% or less plant damage and/or 100% mortality)” value is on record?
A: ≤ 30%

Q: O=C(Cc1ncccn1)NCc1cc(NC(=O)C2C(c3ccc(F)c(C(F)(F)F)c3)C2(Cl)Cl)ccc1Cl (centres unmarked) [Compound 181] was tested. Which “control efficacy (30% or less plant damage and/or 100% mortality)” value did it give?
A: ≤ 30%

Q: Which “control efficacy (30% or less plant damage and/or 100% mortality)” value does the source give for CC(=O)NCc1cc(NC(=O)C2C(c3ccc(F)c(Cl)c3)C2(Cl)Cl)ccc1Br (centres unmarked) [Compound 133] here?
A: ≤ 30%

Q: With CCC(=O)NCc1cc(NC(=O)C2C(c3ccc(Cl)c(Cl)c3)C2(Cl)Cl)ccc1Cl (centres unmarked) [Compound 35] as the molecule, how does the “control efficacy (30% or less plant damage and/or 100% mortality)” value read?
A: ≤ 30%

Q: For O=C(Nc1ccc(Cl)c(CNC(=O)C(F)(F)F)c1)C1C(c2cc(F)c(F)c(F)c2)C1(Cl)Cl (centres unmarked) [Compound 177], which “control efficacy (30% or less plant damage and/or 100% mortality)” value is on record?
A: ≤ 30%

Q: With O=C(NCc1cc(NC(=O)C2C(c3ccc(F)c(Cl)c3)C2(Cl)Cl)ccc1F)C1CC1C(F)(F)F (centres unmarked) [Compound 151] as the molecule, how does the “control efficacy (30% or less plant damage and/or 100% mortality)” value read?
A: ≤ 30%

system: diamondback moth (Plutella xylostella (L.)); assay: Test A: control of diamondback moth, foliar spray on mustard plant; type: in vivo; conditions: sprayed at 50 ppm, assessed after 6 days, value is the feeding damage limit

Q: With CCC(=O)NCc1cc(NC(=O)C2C(c3ccc(F)cc3)C2(Cl)Cl)ccc1F (centres unmarked) [Compound 10] as the molecule, how does the “control efficacy (40% or less feeding damage and/or 100% mortality)” value read?
A: ≤ 40%

Q: With CCC(=O)NCc1cc(NC(=O)C2C(c3ccc(F)c(C(F)(F)F)c3)C2(Cl)Cl)ccc1F (centres unmarked) [Compound 36] as the molecule, how does the “control efficacy (40% or less feeding damage and/or 100% mortality)” value read?
A: ≤ 40%

Q: How did the “control efficacy (40% or less feeding damage and/or 100% mortality)” value turn out when CC(=O)NCc1cc(NC(=O)C2C(c3ccc(F)cc3)C2(Cl)Cl)ccc1Cl (centres unmarked) [Compound 8] was run?
A: ≤ 40%

Q: Which “control efficacy (40% or less feeding damage and/or 100% mortality)” value does the source give for CCC(=O)NCc1cc(NC(=O)C2C(c3ccc(F)cc3)C2(Cl)Cl)ccc1Cl (centres unmarked) [Compound 9] here?
A: ≤ 40%

Q: Which “control efficacy (40% or less feeding damage and/or 100% mortality)” value does the source give for CCC(=O)NCc1cc(NC(=O)C2C(c3ccc(F)c(Cl)c3)C2(Cl)Cl)ccc1Cl (centres unmarked) [Compound 26] here?
A: ≤ 40%

Q: With O=C(Cc1ncccn1)NCc1cc(NC(=O)C2C(c3ccc(F)c(C(F)(F)F)c3)C2(Cl)Cl)ccc1Cl (centres unmarked) [Compound 181] as the molecule, how does the “control efficacy (40% or less feeding damage and/or 100% mortality)” value read?
A: ≤ 40%

Q: How did the “control efficacy (40% or less feeding damage and/or 100% mortality)” value turn out when CC(=O)NCc1cc(NC(=O)C2C(c3ccc(F)c(Cl)c3)C2(Cl)Cl)ccc1Br (centres unmarked) [Compound 133] was run?
A: ≤ 40%

Q: For CCC(=O)NCc1cc(NC(=O)C2C(c3ccc(Cl)c(Cl)c3)C2(Cl)Cl)ccc1Cl (centres unmarked) [Compound 35], which “control efficacy (40% or less feeding damage and/or 100% mortality)” value is on record?
A: ≤ 40%

Q: Which “control efficacy (40% or less feeding damage and/or 100% mortality)” value does the source give for O=C(Nc1ccc(Cl)c(CNC(=O)C(F)(F)F)c1)C1C(c2cc(F)c(F)c(F)c2)C1(Cl)Cl (centres unmarked) [Compound 177] here?
A: ≤ 40%

Q: For O=C(NCc1cc(NC(=O)C2C(c3ccc(F)c(Cl)c3)C2(Cl)Cl)ccc1F)C1CC1C(F)(F)F (centres unmarked) [Compound 151], which “control efficacy (40% or less feeding damage and/or 100% mortality)” value is on record?
A: ≤ 40%

same assay, conditions: sprayed at 250 ppm, assessed after 6 days, value is the feeding damage limit

Q: CCC(=O)NCc1cc(NC(=O)C2C(c3ccc(F)cc3)C2(Cl)Cl)ccc1F (centres unmarked) [Compound 10] was tested. Which “control efficacy (40% or less feeding damage and/or 100% mortality)” value did it give?
A: ≤ 40%

Q: For CCC(=O)NCc1cc(NC(=O)C2C(c3ccc(F)c(C(F)(F)F)c3)C2(Cl)Cl)ccc1F (centres unmarked) [Compound 36], which “control efficacy (40% or less feeding damage and/or 100% mortality)” value is on record?
A: ≤ 40%

Q: For CC(=O)NCc1cc(NC(=O)C2C(c3ccc(F)cc3)C2(Cl)Cl)ccc1Cl (centres unmarked) [Compound 8], which “control efficacy (40% or less feeding damage and/or 100% mortality)” value is on record?
A: ≤ 40%

Q: How did the “control efficacy (40% or less feeding damage and/or 100% mortality)” value turn out when CCC(=O)NCc1cc(NC(=O)C2C(c3ccc(F)cc3)C2(Cl)Cl)ccc1Cl (centres unmarked) [Compound 9] was run?
A: ≤ 40%

Q: For CCC(=O)NCc1cc(NC(=O)C2C(c3ccc(F)c(Cl)c3)C2(Cl)Cl)ccc1Cl (centres unmarked) [Compound 26], which “control efficacy (40% or less feeding damage and/or 100% mortality)” value is on record?
A: ≤ 40%

Q: With CC(=O)NCc1cc(NC(=O)C2C(c3ccc(F)c(Cl)c3)C2(Cl)Cl)ccc1Br (centres unmarked) [Compound 133] as the molecule, how does the “control efficacy (40% or less feeding damage and/or 100% mortality)” value read?
A: ≤ 40%

Q: CCC(=O)NCc1cc(NC(=O)C2C(c3ccc(Cl)c(Cl)c3)C2(Cl)Cl)ccc1Cl (centres unmarked) [Compound 35] was tested. Which “control efficacy (40% or less feeding damage and/or 100% mortality)” value did it give?
A: ≤ 40%

system: potato leafhopper (Empoasca fabae (Harris)); assay: Test D: control of potato leafhopper through contact and/or systemic means; type: in vivo; conditions: sprayed at 50 ppm; assessed after 6 days
Description: Test compounds were formulated using a solution containing 10% acetone, 90% water and 300 ppm Activator 90® non-ionic surfactant (Loveland Products, Loveland, Colo., USA). The formulated compounds were applied in 1 mL of liquid through an atomizer nozzle positioned 1.27 cm (0.5 inches) above the top of each test unit. Test compounds were sprayed at the rates indicated, and each test was replicated three times.
For evaluating control of potato leafhopper (Empoasca fabae (Harris)) through contact and/or systemic means, the test unit consisted of a small open container with a 5-6-day-old Soleil bean plant (primary leaves emerged) inside. White sand was added to the top of the soil, and one of the primary leaves was excised prior to application of the test compound.
Test compounds were formulated and sprayed at 250 and/or 50 ppm. After spraying of the formulated test compound, the test units were allowed to dry for 1 hour before they were post-infested with 5 potato leafhoppers (18-to-21-day-old adults). A black, screened cap was placed on the top of the test unit, and the test units were held for 6 days in a growth chamber at 20° C. and 70% relative humidity. Each test unit was then visually assessed for insect mortality.

Q: With O=C(Nc1ccc(Cl)c(CNC(=O)C(F)(F)F)c1)C1C(c2cc(F)c(Cl)c(F)c2)C1(Cl)Cl (centres unmarked) [Compound 168] as the molecule, how does the mortality read?
A: at least 80%
